Results of single-concentration screens

T. brucei: 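Whole-parasite assay of Trypanosoma brucei over 72 hours; the read-out is not stated. Tested at 30 µM. The record gives no direction; compounds that gave an IC50 in retests scored well above the rest, so higher reads as stronger inhibition. Values scatter widely below zero; nearly all retest evidence comes from the higher of the two concentrations used. Of about 64,000 compounds tested this way, about 940 (1.5%) reached 50% or more in at least one test.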
Leishmania in macrophages: 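Cell assay of Leishmania donovani living inside macrophages; the read-out is not stated. Tested at 30 µM. Higher reads as stronger inhibition (inferred: compounds with an IC50 in retests scored well above the rest). About 69,000 compounds were tested under these conditions; 1.5% (about 1,000) showed 50% or more at least once.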
Toxoplasma: 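Assay of Toxoplasma gondii numbers, read through their beta-galactosidase reporter with a colour substrate. Concentration: 10 µM. The record gives no direction; the compounds picked for IC50 retests had high values, so higher reads as fewer parasites. About 67,000 compounds were tested under these conditions; 0.38% (about 260) showed 50% or more at least once.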

Results are given as percent effect.
The controls that fix the scale are not given in the record; negative values are as filed.
The compounds are a random part of those screened.

- Cc1ncccc1CNCC1CCN(CC(C)O)CC1 (stereo not given) : T. brucei: -14.5%; Leishmania in macrophages: 34.33%; Toxoplasma: -4.97%
- CC(C)c1noc(CN2CCC3(CCCO3)CCC2=O)n1 (stereo not given) : T. brucei: -48.48%; Leishmania in macrophages: 3.703%; Toxoplasma: -2.203%
- CCOc1nc2cnccc2n(CC(=O)NCc2ccco2)c1=O : T. brucei: -8.101%; Leishmania in macrophages: -11.31%; Toxoplasma: 24.48%
- O=C(C1CCC1)N1CCC2(CC1)OCCO2 : T. brucei: -23.65%; Leishmania in macrophages: -5.319%; Toxoplasma: 0.553%
- Cc1cnc(C(=O)N2CCCN(Cc3cnn(C(C)C)c3)CC2)cn1 : T. brucei: -53.12%; Leishmania in macrophages: 24.63%; Toxoplasma: 7.206%
- Cc1ccc(S(=O)(=O)NC(=O)CCC(F)(F)F)cc1N(C)C : T. brucei: -20%; Leishmania in macrophages: 0.2401%; Toxoplasma: 1.393%
- CCc1n[nH]c(C2CN(CCc3ccncc3)CCO2)n1 (stereo not given) : T. brucei: 4.865%; Leishmania in macrophages: 11.12%; Toxoplasma: -0.7312%
- O=C(O)C(F)(F)F.[H][C@@]12OCCN(Cc3nccs3)[C@@]1([H])CC[C@H]2OCC1CCCC1 : T. brucei: 12.79%; Leishmania in macrophages: 15.67%; Toxoplasma: -0.3944%
- CCOCCOC(C)C(=O)Nc1ccnn1-c1ccccc1C (stereo not given) : T. brucei: -10.28%; Leishmania in macrophages: -22.51%; Toxoplasma: -15.11%
- CC(=O)N(C)Cc1ccccc1NC(=O)c1cnn(C)c1C : T. brucei: -22.04%; Leishmania in macrophages: 13.69%; Toxoplasma: 22.93%
- Cc1ccc(N2CCN(C(=O)COc3nccc(C)n3)CC2)nn1 : T. brucei: -40.33%; Leishmania in macrophages: 3.437%; Toxoplasma: -2.189%
- Cn1cnc2c1C(COCC1CC1)CN(Cc1ccsc1)C2 (stereo not given) : T. brucei: -7.105%; Leishmania in macrophages: -1.807%; Toxoplasma: -3.215%
- CCc1noc(C(C)N(C)Cc2cc(Br)ccc2OC)n1 (stereo not given) : T. brucei: -63.13%; Leishmania in macrophages: 23.17%; Toxoplasma: -13.84%
- COc1ccc(C(=O)C2CCCN(c3cc(C#N)ccn3)C2)cc1F (stereo not given) : T. brucei: 0.9205%; Leishmania in macrophages: 31.9%; Toxoplasma: 5.251%
- COc1cc(NC(=O)c2ccccc2F)c(C(=O)N(C)C)cc1OC : T. brucei: -48.72%; Leishmania in macrophages: 4.637%; Toxoplasma: 13.03%
- COCC1COCCC12CCN(Cc1nccs1)CC2.O=C(O)C(F)(F)F (stereo not given) : T. brucei: -49.88%; Leishmania in macrophages: 14.02%; Toxoplasma: 12.23%
- CCC(Nc1ccc(CCN2CCOCC2)cc1)C(N)=O (stereo not given) : T. brucei: -8.998%; Leishmania in macrophages: -36.26%; Toxoplasma: -5.551%
- CCN(Cc1cnn(CC)c1)C(=O)Cn1c(=O)ccc2ccccc21 : T. brucei: -43.24%; Leishmania in macrophages: 25.21%; Toxoplasma: -73.22%
- CC1CCN(C)c2ccccc2N1C(=O)c1ccc(=O)n(C)n1 (stereo not given) : T. brucei: -12.28%; Leishmania in macrophages: 5.803%; Toxoplasma: -26.6%
- Cc1cc(C)n(C2CCCN(C(=O)c3ccc(NC4CC4)nc3)C2)n1 (stereo not given) : T. brucei: 3.181%; Leishmania in macrophages: -30.55%; Toxoplasma: -21.44%
- Fc1cnc(N2CC3(CCN(Cc4ccsc4)C3)C2)nc1.O=C(O)C(F)(F)F : T. brucei: 27.68%; Leishmania in macrophages: 16.28%; Toxoplasma: -5.941%
- Cc1ccc(C(=O)N2CC(C)(C)[C@@](C)(O)C2)cc1N1CCNC1=O : T. brucei: -2.359%; Leishmania in macrophages: 28.83%; Toxoplasma: 8.77%
- CC(C)c1cc(C(=O)NCCn2nnc3ccccc32)no1 : T. brucei: -36.97%; Leishmania in macrophages: 7.414%; Toxoplasma: -13.17%
- O=C(NCc1cscn1)NC1CCN(c2ncccc2Cl)C1 (stereo not given) : T. brucei: 3.314%; Leishmania in macrophages: 14.64%; Toxoplasma: -8.537%
- CCOc1nn(CC)cc1-c1nnc(SCc2cccnc2)n1CC : T. brucei: 0.7623%; Leishmania in macrophages: 27.24%; Toxoplasma: 11.93%
- CNc1cc(C2CN(CC(=O)N(C)C)CCO2)nc(C)n1 (stereo not given) : T. brucei: -30.37%; Leishmania in macrophages: 2.123%; Toxoplasma: 1.714%
- COc1ccnc(NC2CCN(CC(=O)Nc3ccccc3)CC2)n1 : T. brucei: -30.48%; Leishmania in macrophages: -0.8363%; Toxoplasma: -6.098%
- Cc1cc(C)c(CNC(=O)N2CCN(c3ccccn3)CC2)c(=O)[nH]1 : Leishmania in macrophages: 15.1%; Toxoplasma: -2.726%

2 of the entries, repeated:

SMILES,T. brucei,Leishmania in macrophages,Toxoplasma
Cc1ccc(S(=O)(=O)NC(=O)CCC(F)(F)F)cc1N(C)C,-20,0.2401,1.393
Cc1cnc(C(=O)N2CCCN(Cc3cnn(C(C)C)c3)CC2)cn1,-53.12,24.63,7.206

Data taken from ChEMBL document CHEMBL3988442, “University of Dundee, Small-Polar-MMV Screening Library” (2021).